Source: the supplement of paper PMC10849652
Some of the results follow.

Protein sequences, listed by entry. Tags and fused reporters are not part of them. Lines headed by an entry give the natural chain unless they say otherwise; changes in a name come on top.
UniProt P57721, whole entry, looked up: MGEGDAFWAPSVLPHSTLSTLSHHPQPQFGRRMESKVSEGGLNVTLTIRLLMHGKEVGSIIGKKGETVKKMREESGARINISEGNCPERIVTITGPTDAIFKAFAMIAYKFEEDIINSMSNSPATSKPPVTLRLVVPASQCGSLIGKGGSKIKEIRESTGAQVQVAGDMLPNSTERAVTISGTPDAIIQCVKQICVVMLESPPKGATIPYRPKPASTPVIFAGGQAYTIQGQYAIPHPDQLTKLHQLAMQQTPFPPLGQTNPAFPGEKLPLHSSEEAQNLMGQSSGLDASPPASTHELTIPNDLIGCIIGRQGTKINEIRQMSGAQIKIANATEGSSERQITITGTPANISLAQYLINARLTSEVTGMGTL
UniProt P56645: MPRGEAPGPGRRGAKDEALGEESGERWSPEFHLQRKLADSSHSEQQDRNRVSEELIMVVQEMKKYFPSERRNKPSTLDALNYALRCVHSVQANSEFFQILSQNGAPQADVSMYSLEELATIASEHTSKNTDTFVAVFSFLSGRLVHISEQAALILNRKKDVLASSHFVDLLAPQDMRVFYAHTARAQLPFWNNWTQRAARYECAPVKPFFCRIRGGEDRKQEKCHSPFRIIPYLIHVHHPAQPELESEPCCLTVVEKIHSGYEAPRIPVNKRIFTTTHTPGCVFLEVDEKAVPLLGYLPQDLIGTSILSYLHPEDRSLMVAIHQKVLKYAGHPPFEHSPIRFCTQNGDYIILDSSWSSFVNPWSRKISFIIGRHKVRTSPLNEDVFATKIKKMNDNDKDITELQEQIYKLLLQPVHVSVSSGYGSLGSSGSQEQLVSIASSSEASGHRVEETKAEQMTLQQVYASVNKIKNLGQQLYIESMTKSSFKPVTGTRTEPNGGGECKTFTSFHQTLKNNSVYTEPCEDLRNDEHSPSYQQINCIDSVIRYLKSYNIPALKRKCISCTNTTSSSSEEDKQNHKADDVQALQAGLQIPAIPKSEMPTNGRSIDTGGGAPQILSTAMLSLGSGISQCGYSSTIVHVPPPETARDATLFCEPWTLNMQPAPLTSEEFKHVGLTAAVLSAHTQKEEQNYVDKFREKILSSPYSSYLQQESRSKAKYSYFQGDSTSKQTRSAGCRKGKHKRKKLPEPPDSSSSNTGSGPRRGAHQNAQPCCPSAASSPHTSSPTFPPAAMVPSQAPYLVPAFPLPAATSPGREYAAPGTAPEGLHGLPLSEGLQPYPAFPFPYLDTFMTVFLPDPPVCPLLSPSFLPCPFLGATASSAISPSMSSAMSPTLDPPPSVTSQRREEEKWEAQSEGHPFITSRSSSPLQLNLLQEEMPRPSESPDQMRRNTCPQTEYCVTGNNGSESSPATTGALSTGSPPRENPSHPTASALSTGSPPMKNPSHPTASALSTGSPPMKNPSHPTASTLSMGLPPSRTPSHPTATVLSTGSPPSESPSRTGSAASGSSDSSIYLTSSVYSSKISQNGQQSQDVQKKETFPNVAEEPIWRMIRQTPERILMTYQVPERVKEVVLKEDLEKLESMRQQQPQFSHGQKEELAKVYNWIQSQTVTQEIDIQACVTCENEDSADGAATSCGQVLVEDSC
UniProt Q6P996: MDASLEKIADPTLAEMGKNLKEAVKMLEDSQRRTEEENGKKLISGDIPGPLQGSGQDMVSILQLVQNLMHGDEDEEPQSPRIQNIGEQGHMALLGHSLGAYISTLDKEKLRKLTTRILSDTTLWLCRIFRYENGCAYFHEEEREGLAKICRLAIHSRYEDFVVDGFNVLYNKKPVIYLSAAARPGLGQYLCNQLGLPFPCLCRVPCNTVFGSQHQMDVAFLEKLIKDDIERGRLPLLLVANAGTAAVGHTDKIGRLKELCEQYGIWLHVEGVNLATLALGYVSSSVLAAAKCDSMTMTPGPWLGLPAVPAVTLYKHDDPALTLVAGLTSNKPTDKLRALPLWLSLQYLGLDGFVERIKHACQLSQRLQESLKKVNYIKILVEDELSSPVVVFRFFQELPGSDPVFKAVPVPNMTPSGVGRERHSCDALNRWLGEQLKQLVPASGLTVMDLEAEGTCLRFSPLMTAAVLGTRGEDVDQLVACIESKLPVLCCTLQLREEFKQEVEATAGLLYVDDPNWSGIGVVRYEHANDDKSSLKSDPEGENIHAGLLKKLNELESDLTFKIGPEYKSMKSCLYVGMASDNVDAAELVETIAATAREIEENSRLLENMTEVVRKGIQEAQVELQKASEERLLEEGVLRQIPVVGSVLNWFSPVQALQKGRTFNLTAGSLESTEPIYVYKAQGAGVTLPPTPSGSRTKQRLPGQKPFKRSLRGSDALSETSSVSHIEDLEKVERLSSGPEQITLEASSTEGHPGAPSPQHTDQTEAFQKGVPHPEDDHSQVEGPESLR
UniProt Q96RG2: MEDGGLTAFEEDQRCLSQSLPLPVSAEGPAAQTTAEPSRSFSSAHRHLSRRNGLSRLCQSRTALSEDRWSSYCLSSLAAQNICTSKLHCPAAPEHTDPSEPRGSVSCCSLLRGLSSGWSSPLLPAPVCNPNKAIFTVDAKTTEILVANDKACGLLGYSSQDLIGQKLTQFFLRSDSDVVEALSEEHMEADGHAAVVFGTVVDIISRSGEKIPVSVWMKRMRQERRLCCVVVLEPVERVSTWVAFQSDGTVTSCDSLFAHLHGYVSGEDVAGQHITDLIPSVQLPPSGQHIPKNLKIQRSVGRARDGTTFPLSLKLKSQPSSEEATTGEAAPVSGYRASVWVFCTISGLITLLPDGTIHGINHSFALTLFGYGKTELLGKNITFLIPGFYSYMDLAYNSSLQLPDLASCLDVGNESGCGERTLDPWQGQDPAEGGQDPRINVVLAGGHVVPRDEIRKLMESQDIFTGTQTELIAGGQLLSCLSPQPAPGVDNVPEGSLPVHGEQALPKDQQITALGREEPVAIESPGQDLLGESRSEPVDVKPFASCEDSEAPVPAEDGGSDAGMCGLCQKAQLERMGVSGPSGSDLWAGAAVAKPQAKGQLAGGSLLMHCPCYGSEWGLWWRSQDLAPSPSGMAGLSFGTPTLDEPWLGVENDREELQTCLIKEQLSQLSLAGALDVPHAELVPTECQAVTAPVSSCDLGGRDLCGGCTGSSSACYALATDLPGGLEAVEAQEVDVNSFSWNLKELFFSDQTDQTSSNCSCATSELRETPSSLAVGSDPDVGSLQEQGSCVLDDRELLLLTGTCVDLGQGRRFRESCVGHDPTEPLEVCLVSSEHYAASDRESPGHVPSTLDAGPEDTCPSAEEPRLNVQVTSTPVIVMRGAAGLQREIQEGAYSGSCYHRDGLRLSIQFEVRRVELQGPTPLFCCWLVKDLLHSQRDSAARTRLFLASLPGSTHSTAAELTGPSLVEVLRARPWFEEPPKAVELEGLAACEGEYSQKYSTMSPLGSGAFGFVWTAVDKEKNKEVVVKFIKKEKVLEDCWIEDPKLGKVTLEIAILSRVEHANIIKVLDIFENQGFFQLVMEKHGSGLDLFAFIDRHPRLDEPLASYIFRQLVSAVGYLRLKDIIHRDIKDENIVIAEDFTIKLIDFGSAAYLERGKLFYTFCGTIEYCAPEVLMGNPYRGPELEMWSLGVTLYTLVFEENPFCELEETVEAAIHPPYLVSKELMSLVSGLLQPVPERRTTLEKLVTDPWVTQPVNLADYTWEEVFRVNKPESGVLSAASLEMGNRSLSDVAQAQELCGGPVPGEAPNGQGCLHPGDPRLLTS
UniProt Q8NBP7, whole entry, looked up: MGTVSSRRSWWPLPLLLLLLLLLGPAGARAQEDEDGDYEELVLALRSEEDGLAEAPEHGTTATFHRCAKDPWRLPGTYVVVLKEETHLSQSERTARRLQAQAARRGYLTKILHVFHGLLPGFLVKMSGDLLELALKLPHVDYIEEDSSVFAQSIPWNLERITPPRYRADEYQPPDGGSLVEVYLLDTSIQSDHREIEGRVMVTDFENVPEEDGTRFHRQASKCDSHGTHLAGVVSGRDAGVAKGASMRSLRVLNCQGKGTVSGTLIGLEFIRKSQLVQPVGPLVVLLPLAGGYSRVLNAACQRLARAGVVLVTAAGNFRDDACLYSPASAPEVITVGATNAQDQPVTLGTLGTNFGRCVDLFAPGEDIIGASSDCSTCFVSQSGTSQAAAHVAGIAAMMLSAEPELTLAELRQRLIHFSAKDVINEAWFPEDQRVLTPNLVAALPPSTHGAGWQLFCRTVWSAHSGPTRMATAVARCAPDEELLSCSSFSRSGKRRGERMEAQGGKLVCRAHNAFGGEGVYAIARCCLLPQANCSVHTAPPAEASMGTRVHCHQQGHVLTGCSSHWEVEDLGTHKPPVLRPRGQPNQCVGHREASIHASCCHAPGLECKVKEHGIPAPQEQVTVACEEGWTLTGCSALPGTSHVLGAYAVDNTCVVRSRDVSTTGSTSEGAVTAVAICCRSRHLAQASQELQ
UniProt Q9BUL8: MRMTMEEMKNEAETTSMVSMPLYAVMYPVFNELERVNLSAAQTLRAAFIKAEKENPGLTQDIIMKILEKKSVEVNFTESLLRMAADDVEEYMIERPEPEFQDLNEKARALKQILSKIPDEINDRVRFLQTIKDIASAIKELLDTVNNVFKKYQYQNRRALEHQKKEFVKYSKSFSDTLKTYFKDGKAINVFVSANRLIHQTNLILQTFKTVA
UniProt O15530: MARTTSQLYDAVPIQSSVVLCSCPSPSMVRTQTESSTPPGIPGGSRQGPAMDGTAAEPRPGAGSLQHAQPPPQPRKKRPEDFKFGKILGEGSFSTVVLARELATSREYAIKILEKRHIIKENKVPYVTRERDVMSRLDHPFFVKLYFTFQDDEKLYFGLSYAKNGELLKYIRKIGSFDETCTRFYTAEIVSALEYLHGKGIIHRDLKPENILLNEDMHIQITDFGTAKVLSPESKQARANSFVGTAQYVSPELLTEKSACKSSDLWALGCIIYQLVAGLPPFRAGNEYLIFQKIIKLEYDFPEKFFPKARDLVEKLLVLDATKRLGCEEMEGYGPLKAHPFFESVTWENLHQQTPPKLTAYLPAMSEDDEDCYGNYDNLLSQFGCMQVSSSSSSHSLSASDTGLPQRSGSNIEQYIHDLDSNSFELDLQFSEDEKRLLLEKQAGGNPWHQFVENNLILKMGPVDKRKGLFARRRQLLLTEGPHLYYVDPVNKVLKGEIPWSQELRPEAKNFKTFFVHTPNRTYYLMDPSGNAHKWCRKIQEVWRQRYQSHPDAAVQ
UniProt P12955: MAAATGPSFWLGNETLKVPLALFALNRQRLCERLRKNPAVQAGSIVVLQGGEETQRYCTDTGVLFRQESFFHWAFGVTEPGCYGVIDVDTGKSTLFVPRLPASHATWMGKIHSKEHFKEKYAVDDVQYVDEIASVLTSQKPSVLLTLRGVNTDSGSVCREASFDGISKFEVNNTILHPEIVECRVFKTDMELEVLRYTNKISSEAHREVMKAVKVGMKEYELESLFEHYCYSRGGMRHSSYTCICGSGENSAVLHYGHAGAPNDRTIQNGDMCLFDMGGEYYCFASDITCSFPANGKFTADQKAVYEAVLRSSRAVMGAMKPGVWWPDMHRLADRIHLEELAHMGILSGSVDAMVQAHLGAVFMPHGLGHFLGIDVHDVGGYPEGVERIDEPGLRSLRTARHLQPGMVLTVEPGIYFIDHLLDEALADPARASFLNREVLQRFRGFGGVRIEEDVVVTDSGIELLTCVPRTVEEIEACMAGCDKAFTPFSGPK
UniProt O75340: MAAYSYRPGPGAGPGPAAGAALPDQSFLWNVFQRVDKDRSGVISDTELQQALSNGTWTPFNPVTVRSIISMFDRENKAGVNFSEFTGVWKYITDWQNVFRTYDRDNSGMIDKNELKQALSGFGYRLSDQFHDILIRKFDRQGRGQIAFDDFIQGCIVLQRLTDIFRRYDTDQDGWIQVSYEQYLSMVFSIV
UniProt P05165: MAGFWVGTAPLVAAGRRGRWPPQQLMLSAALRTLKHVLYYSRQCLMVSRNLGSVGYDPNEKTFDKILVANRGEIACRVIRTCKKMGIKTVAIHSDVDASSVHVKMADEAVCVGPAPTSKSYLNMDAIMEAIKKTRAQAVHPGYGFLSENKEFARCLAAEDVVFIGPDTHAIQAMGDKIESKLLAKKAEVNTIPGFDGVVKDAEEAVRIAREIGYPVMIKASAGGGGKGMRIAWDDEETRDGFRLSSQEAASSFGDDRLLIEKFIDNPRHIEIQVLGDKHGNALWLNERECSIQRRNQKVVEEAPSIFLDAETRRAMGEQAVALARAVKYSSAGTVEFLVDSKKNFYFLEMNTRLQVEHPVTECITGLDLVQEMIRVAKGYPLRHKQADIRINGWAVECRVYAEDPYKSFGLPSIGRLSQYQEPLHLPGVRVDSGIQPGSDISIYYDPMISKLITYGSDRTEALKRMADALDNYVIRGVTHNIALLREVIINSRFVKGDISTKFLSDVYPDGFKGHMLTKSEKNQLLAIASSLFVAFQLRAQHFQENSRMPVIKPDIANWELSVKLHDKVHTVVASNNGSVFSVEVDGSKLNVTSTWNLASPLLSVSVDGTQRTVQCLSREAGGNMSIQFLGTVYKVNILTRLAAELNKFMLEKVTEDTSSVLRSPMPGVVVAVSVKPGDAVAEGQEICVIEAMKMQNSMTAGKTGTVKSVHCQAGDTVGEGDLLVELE

What was measured:
Test in all cases: log2 fold change, soluble protein after heating vs DMSO (PISA); higher = thermal stabilisation; K562 lysate, 10 uM; active = over 0.2 and 3.5 SD of the protein, either way, in both replicates (recomputed)
vemurafenib = compound: CCCS(=O)(=O)Nc1ccc(F)c(C(=O)c2c[nH]c3ncc(-c4ccc(Cl)cc4)cc23)c1F [vemurafenib]
Procedure, shortened: (§1)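 K562 pellets were dounce-homogenised in PBS pH 7.4 with 1 mM MgCl2, and the crude extract at 1 mg/mL protein was treated with 10 μM compound for 30 min. Aliquots were heated for 3 min across 48°C-58°C, pooled, and brought to 0.5% NP-40 at 4°C; soluble protein was the supernatant after 21,000xg for 90 min. Soluble protein was quantified by TMTpro 16plex LC-MS/MS with channel sums equalised, and reported as log2 fold change in thermal stability against DMSO controls, with values from duplicates.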

[1] = compound: CCCS(=O)(=O)Nc1ccc(F)c(C(=O)c2c[nH]c3ncc(Cl)cc23)c1F
Procedure, shortened: as §1

barasertib = compound: CCN(CCCOc1ccc2c(Nc3cc(CC(=O)Nc4cccc(F)c4)[nH]n3)ncnc2c1)CCOP(=O)(O)O [barasertib]
Procedure, shortened: as §1

[2] = compound: CC[C@@H]1C(=O)N(C)c2cnc(Nc3ccc(C(=O)NC4CCN(C)CC4)cc3OC)nc2N1C1CCCC1
Procedure, shortened: as §1

volasertib = compound: CC[C@@H]1C(=O)N(C)c2cnc(Nc3ccc(C(=O)N[C@H]4CC[C@H](N5CCN(CC6CC6)CC5)CC4)cc3OC)nc2N1C(C)C [volasertib]
Procedure, shortened: as §1

[3] = compound: CCn1c(C(=O)N(C2CC2)C2CC2)cc2c3c(ncn3C)c(Nc3cc(C)n(C)n3)nc21
Procedure, shortened: as §1

[4] = compound: CCn1cc(-c2ccnc3[nH]c(-c4cccc(CN(C)C)c4)cc23)c(-c2ccc(NC(=O)N(C)C)cc2)n1
Procedure, shortened: as §1

[5] = compound: CN1CCC(CNc2ccc3ncc(-c4cccc(OC(F)(F)F)c4)n3n2)CC1
Procedure, shortened: as §1

saracatinib = compound: CN1CCN(CCOc2cc(OC3CCOCC3)c3c(Nc4c(Cl)ccc5c4OCO5)ncnc3c2)CC1 [saracatinib]
Procedure, shortened: as §1

sotrastaurin = compound: CN1CCN(c2nc(C3=C(c4c[nH]c5ccccc45)C(=O)NC3=O)c3ccccc3n2)CC1 [sotrastaurin]
Procedure, shortened: as §1

| Target | log2 fold change (vemurafenib) | log2 fold change [1] | log2 fold change (barasertib) | log2 fold change [2] | log2 fold change (volasertib) | log2 fold change [3] | log2 fold change [4] | log2 fold change [5] | log2 fold change (saracatinib) | log2 fold change (sotrastaurin) |
| --- | --- | --- | --- | --- | --- | --- | --- | --- | --- | --- |
| PFKFB2 (UniProt O60825) | inactive: -0.011 | inactive: 0.011 | inactive: 0.008 | inactive: 0.004 | inactive: -0.025 | inactive: 0.015 | inactive: -0.021 | inactive: -0.029 | inactive: 0.012 | inactive: 0.002 |
| PDLIM5 (UniProt Q96HC4) | inactive: -0.028 | inactive: 0.014 | inactive: -0.079 | inactive: 0.022 | inactive: 0.013 | inactive: -0.046 | inactive: -0.132 | inactive: 0.142 | inactive: 0 | inactive: -0.043 |
| PFKFB4 (UniProt Q16877) | inactive: 0.021 | inactive: 0.005 | inactive: 0.087 | inactive: 0.015 | inactive: -0.068 | inactive: -0.011 | inactive: 0.014 | inactive: 0.007 | inactive: 0.077 | inactive: 0.043 |
| PFDN6 (UniProt O15212) | inactive: -0.028 | inactive: -0.033 | inactive: 0.205 | inactive: 0.008 | inactive: 0.03 | inactive: 0.04 | inactive: 0.055 | inactive: -0.1 | inactive: 0.011 | inactive: -0.009 |
| PBK (UniProt Q96KB5) | inactive: -0.006 | inactive: 0.002 | inactive: -0.009 | inactive: -0.069 | inactive: -0.033 | inactive: 0.039 | inactive: 0.043 | inactive: -0.017 | inactive: -0.018 | inactive: -0.015 |
| PARS2 (UniProt Q7L3T8) | inactive: -0.028 | inactive: 0.002 | inactive: 0.015 | inactive: -0.031 | inactive: -0.004 | inactive: 0.009 | inactive: 0.061 | inactive: -0.021 | inactive: -0.046 | inactive: -0.006 |
| PDSS1 (UniProt Q5T2R2) | inactive: -0.059 | inactive: -0.077 | inactive: 0.035 | inactive: -0.04 | inactive: 0 | inactive: 0.122 | inactive: 0.117 | inactive: -0.042 | inactive: 0.145 | inactive: 0.088 |
| PET100 (UniProt P0DJ07) | inactive: 0 | inactive: 0.046 | inactive: 0.017 | inactive: 0.107 | inactive: -0.035 | inactive: 0.04 | inactive: 0.23 | inactive: -0.221 | inactive: -0.005 | inactive: 0.056 |
| PCBP3 (UniProt P57721) | inactive: 0.021 | inactive: -0.007 | inactive: -0.007 | inactive: -0.003 | inactive: 0.006 | inactive: -0.011 | inactive: -0.062 | inactive: 0.032 | inactive: 0.014 | inactive: -0.047 |
| PDCD6IP isoform 2 (UniProt Q8WUM4) | inactive: -0.018 | inactive: -0.005 | inactive: -0.008 | inactive: -0.036 | inactive: -0.022 | inactive: 0.032 | inactive: 0.071 | inactive: -0.054 | inactive: 0.011 | inactive: 0.003 |
| PCYOX1L (UniProt Q8NBM8) | inactive: 0.058 | inactive: 0.058 | inactive: -0.004 | inactive: -0.001 | inactive: 0.005 | inactive: -0.023 | inactive: -0.012 | inactive: 0.124 | inactive: -0.012 | inactive: 0.027 |
| PCBD2 (UniProt Q9H0N5) | inactive: 0.004 | inactive: -0.017 | inactive: 0.013 | inactive: 0.018 | inactive: 0.016 | inactive: 0.031 | inactive: -0.237 | inactive: 0.11 | inactive: -0.05 | inactive: 0.055 |
| PCBP1 (UniProt Q15365) | inactive: 0.017 | inactive: 0.027 | inactive: -0.017 | inactive: 0.038 | inactive: 0.001 | inactive: -0.027 | inactive: 0.029 | inactive: 0.054 | inactive: 0.012 | inactive: -0.024 |
| PEX5 isoform 4 (UniProt P50542) | inactive: 0.044 | inactive: 0.06 | inactive: -0.003 | inactive: -0.081 | inactive: 0.066 | inactive: 0.037 | inactive: 0.055 | inactive: -0.048 | inactive: 0.014 | inactive: 0.024 |
| PECAM1 (UniProt P16284) | inactive: 0.007 | inactive: 0.035 | inactive: 0.074 | inactive: 0.033 | inactive: 0.024 | inactive: -0.019 | inactive: -0.043 | inactive: 0.071 | inactive: 0.018 | inactive: -0.002 |
| PER3 isoform 2 (UniProt P56645) | inactive: -0.047 | inactive: 0.047 | inactive: 0.084 | inactive: -0.008 | inactive: -0.004 | inactive: -0.021 | inactive: -0.01 | inactive: 0.024 | inactive: -0.01 | inactive: -0.006 |
| PC (UniProt P11498) | inactive: 0.051 | inactive: 0.034 | inactive: 0.021 | inactive: -0.041 | inactive: -0.056 | inactive: 0.015 | inactive: 0.019 | inactive: -0.034 | inactive: -0.009 | inactive: 0.027 |
| PCTP (UniProt Q9UKL6) | inactive: -0.014 | inactive: -0.01 | inactive: 0.024 | inactive: -0.002 | inactive: -0.006 | inactive: -0.035 | inactive: -0.148 | inactive: 0.013 | inactive: -0.009 | inactive: -0.015 |
| PCYT1A (UniProt P49585) | inactive: -0.02 | inactive: 0.024 | inactive: -0.015 | inactive: 0.042 | inactive: 0.004 | inactive: -0.001 | inactive: 0.05 | inactive: 0.006 | inactive: 0.007 | inactive: 0.005 |
| PDZD8 (UniProt Q8NEN9) | inactive: 0.053 | inactive: -0.01 | inactive: -0.021 | inactive: 0.089 | inactive: -0.001 | inactive: 0.003 | inactive: -0.017 | inactive: -0.008 | inactive: 0.027 | inactive: -0.024 |
| PFDN2 (UniProt Q9UHV9) | inactive: -0.049 | inactive: 0 | inactive: 0.064 | inactive: -0.022 | inactive: 0.029 | inactive: 0.082 | active: 0.471 | inactive: -0.049 | inactive: 0.009 | inactive: 0.039 |
| PDXDC1 (UniProt Q6P996) | inactive: -0.005 | inactive: -0.02 | inactive: 0.008 | inactive: 0.03 | inactive: -0.059 | inactive: -0.004 | inactive: -0.031 | inactive: -0.067 | inactive: -0.005 | inactive: 0.015 |
| PASK (UniProt Q96RG2) | inactive: -0.081 | inactive: 0.021 | inactive: 0.001 | inactive: 0 | inactive: -0.065 | inactive: -0.013 | inactive: -0.017 | inactive: 0.037 | inactive: -0.001 | inactive: 0.109 |
| PCSK9 (UniProt Q8NBP7) | inactive: 0.034 | inactive: -0.005 | inactive: 0.106 | inactive: 0 | inactive: 0.015 | inactive: 0.016 | inactive: -0.045 | inactive: 0.024 | inactive: -0.063 | inactive: -0.039 |
| PDCD10 (UniProt Q9BUL8) | inactive: -0.021 | inactive: -0.002 | inactive: 0.006 | inactive: -0.012 | inactive: 0.007 | inactive: 0 | active: -0.269 | inactive: 0.029 | inactive: 0.016 | inactive: 0.04 |
| PDHA1 isoform 4 (UniProt P08559) | inactive: 0.002 | inactive: 0.009 | inactive: 0.039 | inactive: -0.008 | inactive: -0.054 | inactive: 0.009 | inactive: 0.195 | inactive: -0.101 | inactive: -0.066 | inactive: -0.016 |
| PDPK1 (UniProt O15530) | inactive: -0.03 | inactive: -0.002 | inactive: -0.027 | inactive: -0.06 | inactive: -0.047 | inactive: 0.012 | inactive: 0.041 | inactive: -0.017 | inactive: -0.025 | inactive: 0.133 |
| PEPD (UniProt P12955) | inactive: -0.034 | inactive: 0.024 | inactive: -0.011 | inactive: -0.008 | inactive: 0.011 | inactive: -0.048 | inactive: 0.028 | inactive: 0.04 | inactive: -0.013 | inactive: 0.005 |
| PDCD6 (UniProt O75340) | inactive: 0.027 | inactive: 0.002 | inactive: 0.28 | inactive: -0.02 | inactive: -0.004 | inactive: 0.007 | inactive: -0.043 | inactive: -0.033 | inactive: -0.012 | inactive: -0.025 |
| PCCA (UniProt P05165) | inactive: 0.026 | inactive: -0.022 | inactive: 0.048 | inactive: 0.052 | inactive: -0.001 | inactive: 0.007 | inactive: -0.017 | inactive: -0.004 | inactive: 0.051 | inactive: -0.005 |

Fetched one by one from above (two):

| Target | log2 fold change (vemurafenib) | log2 fold change [1] | log2 fold change (barasertib) | log2 fold change [2] | log2 fold change (volasertib) | log2 fold change [3] | log2 fold change [4] | log2 fold change [5] | log2 fold change (saracatinib) | log2 fold change (sotrastaurin) |
| --- | --- | --- | --- | --- | --- | --- | --- | --- | --- | --- |
| PDZD8 (UniProt Q8NEN9) | inactive: 0.053 | inactive: -0.01 | inactive: -0.021 | inactive: 0.089 | inactive: -0.001 | inactive: 0.003 | inactive: -0.017 | inactive: -0.008 | inactive: 0.027 | inactive: -0.024 |
| PCYOX1L (UniProt Q8NBM8) | inactive: 0.058 | inactive: 0.058 | inactive: -0.004 | inactive: -0.001 | inactive: 0.005 | inactive: -0.023 | inactive: -0.012 | inactive: 0.124 | inactive: -0.012 | inactive: 0.027 |
